Measurements taken from publication PMC12713402.

Biological target: SpoVD-FLAG3 (Clostridioides difficile)
Experiment: co-IP; FLAG-tagged bait from sporulating C. difficile (12 h on 70:30 plates), cells cross-linked with 0.25% PFA, lysate solubilised with 0.5% DDM in 150 mM NaCl, 50 mM Tris-HCl pH 7.5, anti-FLAG M2 magnetic resin, eluted with 3x FLAG peptide, Western blot; SpoVD-FLAG3 also in a ∆spoVD∆pbp3 background

Substance: SpoIID, endogenous (from UniProt Q18CL6)
- binding: no binding

Results are given in words; binding and its absence hold for the method and conditions named. In cells and extracts the contact can be indirect.
